These are yes or no findings as the source states them, for the method shown. In cells and extracts the contact can be indirect. Some results given as binding are weak or reduced against the parent protein; the word gives no strength. For part of these data: Tags and fused reporters may be left off the sequences shown.

Sequences of proteins named here, by UniProt entry; tags and fusion partners are left off.
UniProt Q04724: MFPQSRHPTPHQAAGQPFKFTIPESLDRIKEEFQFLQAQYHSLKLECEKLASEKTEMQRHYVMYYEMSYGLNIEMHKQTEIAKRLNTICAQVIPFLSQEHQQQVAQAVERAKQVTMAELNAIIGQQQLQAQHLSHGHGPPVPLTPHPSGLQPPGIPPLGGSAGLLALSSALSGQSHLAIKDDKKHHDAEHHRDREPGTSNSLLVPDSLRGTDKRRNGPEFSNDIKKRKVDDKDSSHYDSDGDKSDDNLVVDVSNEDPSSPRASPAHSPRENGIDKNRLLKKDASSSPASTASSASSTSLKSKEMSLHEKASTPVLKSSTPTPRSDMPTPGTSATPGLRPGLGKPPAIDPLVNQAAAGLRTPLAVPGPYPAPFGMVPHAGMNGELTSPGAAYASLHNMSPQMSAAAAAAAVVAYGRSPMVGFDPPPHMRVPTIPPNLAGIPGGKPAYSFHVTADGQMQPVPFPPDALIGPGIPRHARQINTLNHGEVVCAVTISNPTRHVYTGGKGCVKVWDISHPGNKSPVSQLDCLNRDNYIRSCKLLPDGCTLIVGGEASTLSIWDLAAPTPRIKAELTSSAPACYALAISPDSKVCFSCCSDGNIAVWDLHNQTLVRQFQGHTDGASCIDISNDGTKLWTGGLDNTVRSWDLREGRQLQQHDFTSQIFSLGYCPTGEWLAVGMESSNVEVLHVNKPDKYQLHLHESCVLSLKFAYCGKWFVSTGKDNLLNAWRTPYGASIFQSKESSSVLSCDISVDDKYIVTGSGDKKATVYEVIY

The target in assay [1] is T1, ZEB1 transcription factor, endogenous (human (endogenous in A549)) (UniProt P37275).
T1 sequence: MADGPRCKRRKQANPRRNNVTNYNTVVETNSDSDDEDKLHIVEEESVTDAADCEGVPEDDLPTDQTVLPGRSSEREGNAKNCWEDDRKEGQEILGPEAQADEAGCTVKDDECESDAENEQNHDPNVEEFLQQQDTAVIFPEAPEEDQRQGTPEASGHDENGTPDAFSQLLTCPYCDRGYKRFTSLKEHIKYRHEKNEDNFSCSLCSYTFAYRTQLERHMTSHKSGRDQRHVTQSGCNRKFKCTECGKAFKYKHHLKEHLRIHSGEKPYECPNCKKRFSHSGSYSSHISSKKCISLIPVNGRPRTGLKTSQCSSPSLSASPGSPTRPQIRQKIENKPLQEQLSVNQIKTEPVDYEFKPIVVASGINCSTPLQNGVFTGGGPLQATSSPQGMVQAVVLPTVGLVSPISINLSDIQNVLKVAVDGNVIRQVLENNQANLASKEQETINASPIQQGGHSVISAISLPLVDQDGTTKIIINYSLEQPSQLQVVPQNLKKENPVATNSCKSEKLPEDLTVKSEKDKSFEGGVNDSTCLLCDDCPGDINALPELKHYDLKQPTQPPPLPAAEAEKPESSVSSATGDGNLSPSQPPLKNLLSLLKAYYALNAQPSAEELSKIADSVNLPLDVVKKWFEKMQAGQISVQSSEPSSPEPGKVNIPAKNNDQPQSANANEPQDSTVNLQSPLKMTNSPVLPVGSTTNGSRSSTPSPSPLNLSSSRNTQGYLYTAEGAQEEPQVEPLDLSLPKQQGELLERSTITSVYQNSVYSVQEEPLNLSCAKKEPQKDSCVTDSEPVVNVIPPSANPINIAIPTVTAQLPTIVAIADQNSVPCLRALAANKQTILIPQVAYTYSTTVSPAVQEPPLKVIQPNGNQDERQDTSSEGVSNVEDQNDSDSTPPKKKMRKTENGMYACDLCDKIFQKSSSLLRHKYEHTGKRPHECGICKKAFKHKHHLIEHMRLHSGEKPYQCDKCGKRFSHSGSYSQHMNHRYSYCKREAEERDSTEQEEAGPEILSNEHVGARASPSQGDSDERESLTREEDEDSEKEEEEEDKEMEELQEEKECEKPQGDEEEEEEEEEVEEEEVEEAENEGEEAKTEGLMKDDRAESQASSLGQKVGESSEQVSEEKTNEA
Briefly: co-IP; A549 cell extracts in 1% NP-40 lysis buffer (20 mM Tris-HCl pH 7.4, 150 mM NaCl, 10% glycerol); endogenous proteins immunoprecipitated with anti-TLE1, anti-ZEB1 or non-specific IgG, blotted with anti-TLE1 or anti-ZEB1.

Assay [2] concerns the target Transducin-like enhancer of split 1 (TLE1), endogenous (human (endogenous in A549)) (UniProt Q04724). The assay is described as above.
Another assay addresses GFP-TLE1 (UniProt Q04724). The assay is described as follows: co-IP; Control GFP and GFP-TLE1 A549 cells transfected with Myc-ZEB1 or empty vector; NP-40 lysate; GFP-TLE1 immunoprecipitated with anti-GFP-agarose, blotted with anti-Myc.

On to “Transducin-like enhancer of split 1 (TLE1), endogenous (from UniProt Q04724 1-770)”, for which the binding result in assay [1] is listed as “binds”.

B1: ZEB1 transcription factor, endogenous (protein, UniProt P37275 1-1124)
chain: T1 sequence
For the molecule B1, the binding result in assay [2] is recorded as “binds”.

B2: Myc-tagged ZEB1 (protein, UniProt P37275 1-1124)
chain: T1 sequence
Turning to B2, in the assay with GFP-TLE1, the binding result is given as “binds”.

The values above are taken from paper PMC5641126.
